Construct, isoform or probe ends are uncertain for at least one entry. Where cells or extracts were used, other partners may take part.
Target: GATA-1 (UniProt P15976)
Assay: EMSA antibody supershift
Settings: nuclear extracts of HEL, TF-1, UT-7, MEG-01, shift competed by excess unlabeled probe, anti-CD63 no supershift; protein in an extract; label: biotin 5'

By UniProt entry, the sequences of proteins in these tests, tags left out. Where a name states a change or a piece, a line headed by the entry shows the natural chain unless it says otherwise.
UniProt P15976: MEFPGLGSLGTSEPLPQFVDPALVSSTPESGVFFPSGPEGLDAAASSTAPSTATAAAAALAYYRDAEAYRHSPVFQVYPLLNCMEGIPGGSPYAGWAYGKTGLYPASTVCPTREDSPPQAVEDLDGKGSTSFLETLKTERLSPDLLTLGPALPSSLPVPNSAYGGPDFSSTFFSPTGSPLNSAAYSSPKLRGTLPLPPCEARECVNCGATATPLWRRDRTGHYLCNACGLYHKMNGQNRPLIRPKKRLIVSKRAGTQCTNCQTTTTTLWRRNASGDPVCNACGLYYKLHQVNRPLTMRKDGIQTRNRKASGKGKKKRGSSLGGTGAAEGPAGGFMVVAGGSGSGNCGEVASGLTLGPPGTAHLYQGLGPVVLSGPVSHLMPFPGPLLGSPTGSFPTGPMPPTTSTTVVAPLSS

Question: Does “CCCGGCATTATCACGGGGACAC (double strand) [GATA-301 probe (MTG16 promoter)]” bind?
Answer: binds

— publication PMC3364894
